Experimental data taken from publication PMC5428233, “Cross-beta nanostructures based on dinaphthylalanine Gd-conjugates loaded with doxorubicin” (Scientific Reports, 2017).

Test: Water proton relaxation measurements / NMRD profiles
Type: physicochemical
Conditions: 298 K; for τV, correlation time for the collision-related modulation of the ZFS Hamiltonian: fitting of NMRD profile
Description: The paramagnetic relaxivity (r1p) of Gd (III) complexes is given by:1 r1p∝1/T1MH=Kf(τR) where K is a constant related to the strength of the dipolar interaction between the protons and the electronic magnetic moment, and τR is the correlation time associated with the reorientation of the Gd-H magnetic vector. This means that slowly moving high molecular weight systems are endowed with higher relaxivity than rapidly reorienting low molecular weight ones. In the case of self assembling Gd-containing systems, the extent of aggregation may be evaluated through the measure of the water proton longitudinal relaxation rate of its aqueous solution. In Fig. 8 are reported the NMRD (Nuclear Magnetic Resonance Dispersion) profiles of Gd-2Nal2 acquired at 21.5 MHz (0.5 T) and 298 K as a function of the complex concentration. […] At concentrations higher than 10–15 mg/mL the relaxivity assumes an almost stable value which corresponds to the system in the completely aggregated form. By analyzing the profile of the relaxivity data as a function of the applied field strength (NMRD - Nuclear Magnetic Relaxation Dispersion) it is possible to obtain an accurate determination of the reorientational correlation time (τR)[16], that is strictly related to the molecular size of the investigated system. NMRD profiles were acquired below (black circles) and above (white ones) the CAC values determined by ANS titration and ^1HNMR. […] Data were analyzed using the Solomon-Bloembergen-Morgan model, [18], considering one water molecule in the inner coordination sphere (q = 1) and fixing the exchange lifetime (τM) to a reliable value ([…]) on the basis of those previously reported for mono-amido DOTA derivatives[19]–[22]. The quantitative analysis of the NMRD profile of the aggregated form was not satisfactory when the simple inner- outer-sphere model was used, so the Lipari-Szabo approach was used for the description of the rotational dynamics. This model allows one to take into account the presence ofa certain degree of internal rotation superimposed on the overall tumbling motion, [24]. These two types ofmotion, a relatively fast local rotation of the coordination cage about the linker to the peptide scaffold superimposed on the global reorientation of the system, are characterized by different correlation times: τR ^l and τR ^g, respectively. The degree of correlation between global and local rotations is given by the parameter S^2, which takes values between 0 (completely independent motions) and 1 (entirely correlated motions).
Measure of R1 (longitudinal water proton relaxation rates) of Gd-2Nal2 were carried out on a Stelar Spinmaster spectrometer (Pavia, Italy) operating at 0.5 T which corresponds to 21.5 MHz Proton Larmor Frequency. R1 (1/T1) values were measured at 298 K by mean of the standard inversion-recovery technique. For the measure of the proton 1/T1 NMRD (Nuclear Magnetic Resonance Dispersion) profiles, a fast field-cycling Stelar relaxometer, operating over a continuum of magnetic field strengths from 0.00024 to 0.47 T (corresponding to 0.01–20 MHz proton Larmor frequencies) was used. The temperature was set at 298 K. The relaxometer is computer controlled and the absolute uncertainty is 1/T1 ± 1%. Additional data points were obtained on a Stelar Spinmaster spectrometer coupled to an electromagnet tunable at different Larmor Frequencies between 21.5 and 70 MHz. […]

[1] = 25 mg/mL, Lipari-Szabo approach

NC(=O)[C@H](Cc1ccc2ccccc2c1)NC(=O)[C@H](Cc1ccc2ccccc2c1)NC(=O)CCOCCOCCOCCOCCOCCOCCNC(=O)CN1CCN(CC(=O)O)CCN(CC(=O)O)CCN(CC(=O)O)CC1 [Gd-2Nal2, Gd-DOTA-L6-(2Nal)2] ({DOTA-PEG6}-[2Nal]-[2Nal]-NH2)
τR, reorientational correlation time (1 mg/mL, Solomon-Bloembergen-Morgan fitting of NMRD profile): 184 ps
τV, correlation time for the collision-related modulation of the ZFS Hamiltonian (1 mg/mL): 50 ps
τR^g, global rotational correlation time [1]: 4800 ps
τR^l, local rotational correlation time [1]: 423 ps
τV, correlation time for the collision-related modulation of the ZFS Hamiltonian (25 mg/mL): 43 ps

Where a SMILES comes first, the peptide text is derived from it. [ ]: non-standard residue; d: D form. The star is where a group is joined. DOTA = O=C(O)CN1CCN(CC(=O)O)CCN(CC(=O)*)CCN(CC(=O)O)CC1; 2Nal = N[C@@H](Cc1ccc2ccccc2c1)C(=O)O; PEG6 = NCCOCCOCCOCCOCCOCCOCCC(=O)O
